In PubChem BioAssay AID493014 (National Center for Advancing Translational Sciences (NCATS), 2011):
This is one part of the list. The main result of the screen is listed elsewhere. These columns were measured beside it and carry no call. The list favours compounds with an active or inconclusive main result. The note in brackets gives the kind of curve behind each potency; many fits are weak.

Assay: qHTS Assay to Find Inhibitors of Chronic Active B-Cell Receptor Signaling
Details: ABC-DLBCL IkBa-CBG/CBR reporter, luminescence ratio (green luciferase fused to IkBa over red control in TMD8 lymphoma cells), 4 h
Procedure, shortened: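 Concentration-response series (up to 46 uM) were applied to TMD8 dual-reporter cells for 4 h at 37C with doxycycline. Green/red ratio, after filter-overlap correction, defined %Activity; red signal alone was normalised to basal cells and zero luminescence.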

[1] = measured here: CBR red luminescence, cell number
[2] = measured here: IkBa-CBG green luminescence

SMILES: O=C(CN1C(=O)C2CC=CCC2C1=O)Nc1nc2ccccc2s1 (stereo not given)
- AC50 [1]: 8.91 µM [falling, partial curve]
- AC50 [2]: 7.08 µM [rising, partial curve, poor fit]

SMILES: O=[N+]([O-])c1ccc(OCc2cnc(Cl)s2)c([N+](=O)[O-])c1
- AC50 [1]: 35.5 µM [rising, single point]

SMILES: Cc1nc2ccccc2c2oc(C(=O)NCc3ccc4c(c3)OCO4)cc12
- AC50 [1]: 11.2 µM [falling, partial curve]
- AC50 [2]: 20.6 µM [rising, partial curve, poor fit]

SMILES: CC(CNC(=O)C(C)(C)C)NC(=O)C(C)(C)C (stereo not given)
- AC50 [1]: 4.11 µM [rising, full curve]

SMILES: COc1ccc(-n2cc(-c3ccccc3)nc2SC)cc1
- AC50 [1]: 0.326 µM [rising, full curve, poor fit]

SMILES: COC(=O)C(NNc1ccccc1)(NC(=O)c1ccc(F)cc1)C(F)(F)F (stereo not given)
- AC50 [1]: 35.5 µM [rising, single point]

SMILES: c1ccc(CNc2ccc(CNc3ncn[nH]3)cc2)cc1
- AC50 [1]: 29.1 µM [rising, single point]

SMILES: COc1cc(/C=C2\COC/C(=C\c3cc(OC)c(OC)c(OC)c3)C2=O)cc(OC)c1OC
- AC50 [1]: 0.112 µM [rising, full curve, poor fit]
- AC50 [2]: 2.24 µM [falling, partial curve, poor fit]

SMILES: O=C(O)CN1C(=O)/C(=C\c2cc(Br)ccc2OCc2ccc(Cl)cc2)SC1=S
- AC50 [1]: 1 µM [rising, full curve, poor fit]

SMILES: O=C(NCc1ccccc1)c1cccc(S(=O)(=O)N2CCOCC2)c1
- AC50 [1]: 3.66 µM [rising, full curve, poor fit]

SMILES: Cc1ccc(C)c(NC(=O)CN(C)C(=O)c2ccc3ncsc3c2)c1
- AC50 [1]: 10.3 µM [falling, partial curve]

SMILES: CC(C)c1ccc(/C=N/NC(=O)c2ccccc2Cl)cc1
- AC50 [1]: 12.6 µM [falling, partial curve]
- AC50 [2]: 15.8 µM [falling, partial curve]

SMILES: Brc1cccc(-c2nnc(SCc3nc4ccccc4[nH]3)o2)c1
- AC50 [1]: 31.6 µM [falling, single point]

SMILES: CCOC(=O)N1CCN(C(=O)c2ccc(N3C(=O)CCC3=O)cc2)CC1
- AC50 [1]: 29.1 µM [rising, single point]

SMILES: O=C(Nc1nnc(-c2ccc3c(c2)CCCC3)o1)C1COc2ccccc2O1 (stereo not given)
- AC50 [1]: 0.58 µM [rising, full curve, poor fit]

SMILES: Cc1ccc(C)c(C(=O)OCC(=O)Nc2cccc(S(=O)(=O)N3CCCCC3)c2)c1
- AC50 [1]: 1.46 µM [falling, partial curve, poor fit]
